Source: the supplement of paper PMC10331698
± gives the standard deviation of the averaged measurements. Most values lie at the level of the controls, where differences are scatter.

How the values were obtained:
Assay in all cases: level (log10 ratio to DMSO vehicle control); higher = higher biomarker level / cell amount than vehicle control
[1] = compound: CC(C)(C)C(=O)CC(=O)C(F)(F)C(F)(F)C(F)(F)F [(Heptafluorobutanoyl)pivaloylmethane]; conditions: 2200 nM; in DMSO
Method: (§1)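 BioMAP Diversity Plus panel of 12 human primary cell co-culture systems (3C, 4H, LPS, SAg, BT, BF4T, BE3C, CASM3C, HDF3CGF, KF3CT, MyoF, Mphg). Compounds were added 1 h before stimulation and left for 24 h (MyoF 48 h; BT 72 h for soluble read-outs or 6 d for IgG). Biomarkers were read by ELISA, cytotoxicity by SRB, PBMC viability and proliferation by Alamar Blue. Each well value was divided by the mean of 8 DMSO control wells on the same plate and log10 transformed; duplicate blinded samples were tested at 4 concentrations.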

1-(Perfluorohexyl)octane = compound: CCCCCCCCC(F)(F)C(F)(F)C(F)(F)C(F)(F)C(F)(F)C(F)(F)F [1-(Perfluorohexyl)octane]; conditions: in DMSO
Method: as §1

[2] = compound: CCN(CCO)S(=O)(=O)C(F)(F)C(F)(F)C(F)(F)C(F)(F)C(F)(F)C(F)(F)C(F)(F)C(F)(F)F [N-Ethyl-N-(2-hydroxyethyl)perfluorooctanesulfonamide]; conditions: in DMSO
Method: as §1

[3] = compound: CN(C(=O)C(F)(F)C(F)(F)C(F)(F)F)[Si](C)(C)C [N-Methyl-N-trimethylsilylheptafluorobutyramide]; conditions: 2200 nM; in DMSO
Method: as §1

[4] = compound: Cc1ccc(S(=O)(=O)OCC(F)(F)C(F)(F)C(F)(F)C(F)(F)C(F)(F)C(F)F)cc1 [1H,1H,7H-Perfluoroheptyl 4-methylbenzenesulfonate]; conditions: 2200 nM; in DMSO
Method: as §1

[5] = compound: FC(F)(F)C(F)(F)C(F)(F)C(F)(F)C(F)(F)C(F)(F)CC1CO1 [3-(Perfluorohexyl)-1,2-epoxypropane]; conditions: 2200 nM; in DMSO
Method: as §1

Heptafluorobutyramide = compound: NC(=O)C(F)(F)C(F)(F)C(F)(F)F [Heptafluorobutyramide]; conditions: 2200 nM; in DMSO
Method: as §1

[6] = compound: NCC(F)(F)C(F)(F)C(F)(F)C(F)(F)C(F)(F)C(F)(F)C(F)(F)F [1H,1H-Perfluorooctylamine]; conditions: 2200 nM; in DMSO
Method: as §1

Octafluoroadipic acid = compound: O=C(O)C(F)(F)C(F)(F)C(F)(F)C(F)(F)C(=O)O [Octafluoroadipic acid]; conditions: 2200 nM; in DMSO
Method: as §1

[7] = compound: O=C(O)C(F)(F)C(F)(F)C(F)(F)C(F)(F)C(F)(F)C(F)(F)C(F)(F)C(F)(F)C(F)(F)C(F)F [11-H-Perfluoroundecanoic acid]; conditions: 2200 nM; in DMSO
Method: as §1

Perfluoroheptanoic acid = compound: O=C(O)C(F)(F)C(F)(F)C(F)(F)C(F)(F)C(F)(F)C(F)(F)F [Perfluoroheptanoic acid]; conditions: in DMSO
Method: as §1

Perfluoropentanoic acid = compound: O=C(O)C(F)(F)C(F)(F)C(F)(F)C(F)(F)F [Perfluoropentanoic acid]; conditions: in DMSO
Method: as §1

[8] = compound: O=C(O)C(F)(F)C(F)(F)C(F)(F)OC(F)(F)F [Perfluoro(4-methoxybutanoic) acid]; conditions: 2200 nM; in DMSO
Method: as §1

[9] = compound: O=S(=O)(O)CCC(F)(F)C(F)(F)C(F)(F)C(F)(F)C(F)(F)C(F)(F)C(F)(F)C(F)(F)F [8:2 Fluorotelomer sulfonic acid]; conditions: in DMSO
Method: as §1

1H,1H-Heptafluorobutanol = compound: OCC(F)(F)C(F)(F)C(F)(F)F [1H,1H-Heptafluorobutanol]; conditions: 2200 nM; in DMSO
Method: as §1

[10] = compound: OCCC(F)(F)C(F)(F)C(F)(F)C(F)(F)C(F)(F)C(F)(F)F [6:2 Fluorotelomer alcohol]; conditions: 2200 nM; in DMSO
Method: as §1

Test System | level (log10) [1] | level (log10) (1-(Perfluorohexyl)octane; 740 nM) | level (log10) (1-(Perfluorohexyl)octane; 2200 nM) | level (log10) ([2]; 2200 nM) | level (log10) ([2]; 6700 nM) | level (log10) ([2]; 20000 nM) | level (log10) [3] | level (log10) [4] | level (log10) [5] | level (log10) (Heptafluorobutyramide) | level (log10) [6] | level (log10) (Octafluoroadipic acid) | level (log10) [7] | level (log10) (Perfluoroheptanoic acid; 2200 nM) | level (log10) (Perfluoroheptanoic acid; 6700 nM) | level (log10) (Perfluoroheptanoic acid; 20000 nM) | level (log10) (Perfluoroheptanoic acid; 60000 nM) | level (log10) (Perfluoropentanoic acid; 2200 nM) | level (log10) (Perfluoropentanoic acid; 6700 nM) | level (log10) (Perfluoropentanoic acid; 20000 nM) | level (log10) (Perfluoropentanoic acid; 60000 nM) | level (log10) [8] | level (log10) ([9]; 2200 nM) | level (log10) ([9]; 6700 nM) | level (log10) ([9]; 20000 nM) | level (log10) ([9]; 60000 nM) | level (log10) (1H,1H-Heptafluorobutanol) | level (log10) [10]
LPS:CD142/Tissue Factor | 0.008 ± 0.016 | -0.0035 ± 0.097 | -0.01 ± 0.1 | 0.0775 ± 0.013 | 0.139 ± 0.038 | 0.312 ± 0.037 | 0.0105 ± 0.056 | -0.041 ± 0.11 | -0.019 ± 0.0028 | 0.0035 ± 0.022 | 0.017 ± 0.067 | 0.006 ± 0.052 | 0.0245 ± 0.033 | -0.0085 ± 0.022 | -0.0025 ± 0.005 | -0.007 ± 0.013 | 0.0245 ± 0.005 | -0.012 ± 0.0099 | 0.006 ± 0.0099 | -0.007 ± 0.051 | 0.031 ± 0.099 | -0.0125 ± 0.026 | -0.0005 ± 0.022 | 0.0005 ± 0.067 | 0.024 ± 0.088 | -0.0025 ± 0.011 | -0.003 ± 0.011 | 0.0095 ± 0.013
LPS:CD69 | -0.0145 ± 0.00071 | 0.011 ± 0.088 | -0.003 ± 0.042 | -0.006 ± 0.0014 | -0.134 ± 0.0028 | -0.226 ± 0.0042 | -0.008 ± 0.011 | -0.0065 ± 0.088 | -0.049 ± 0.061 | 0.022 ± 0.064 | -0.017 ± 0.057 | 0.0365 ± 0.06 | -0.007 ± 0.018 | -0.015 ± 0.017 | -0.0095 ± 0.0035 | -0.025 | -0.057 ± 0.013 | 0.0305 ± 0.03 | 0.007 ± 0.011 | -0.0305 ± 0.013 | -0.0135 ± 0.083 | 0.039 ± 0.1 | -0.0035 ± 0.037 | -0.0455 ± 0.06 | -0.035 ± 0.071 | -0.0835 ± 0.049 | -0.026 ± 0.023 | -0.007 ± 0.047
LPS:SRB | -0.001 ± 0.0085 | 0.015 ± 0.0099 | -0.0015 ± 0.016 | -0.013 ± 0.0085 | -0.0345 ± 0.0035 | -0.084 ± 0.02 | 0.007 ± 0.018 | 0.004 ± 0.017 | 0.005 ± 0.0014 | -0.0025 ± 0.00071 | 0.0025 ± 0.0078 | -0.0035 ± 0.011 | 0.008 ± 0.016 | -0.008 ± 0.0057 | -0.019 ± 0.0085 | 0.001 ± 0.0028 | -0.019 ± 0.0099 | -0.002 ± 0.0042 | 0.0015 ± 0.0078 | 0.004 | 0.003 ± 0.0085 | -0.0045 ± 0.005 | 0.002 ± 0.011 | -0.0085 ± 0.005 | -0.0095 ± 0.019 | -0.02 ± 0.018 | -0.0085 ± 0.0078 | -0.0015 ± 0.012
BE3C:IL-1alpha | -0.0075 ± 0.013 | 0.009 ± 0.0028 | 0.014 ± 0.014 | 0.0145 ± 0.021 | 0.0165 ± 0.005 | -0.0485 ± 0.059 | 0.0205 ± 0.044 | 0.0125 ± 0.018 | 0.006 ± 0.041 | -0.0085 ± 0.0021 | -0.0025 ± 0.035 | 0.037 ± 0.0085 | 0.045 ± 0.052 | 0.003 ± 0.061 | -0.0185 ± 0.029 | -0.0065 ± 0.03 | 0.0115 ± 0.0064 | 0.015 ± 0.011 | 0.005 ± 0.02 | 0 ± 0.0028 | 0.0155 ± 0.029 | 0.052 ± 0.0014 | 0.0085 ± 0.0035 | 0.016 ± 0.027 | -0.0055 ± 0.0064 | -0.043 ± 0.037 | 0.006 ± 0.034 | 0.027 ± 0.041
BF4T:MMP-3 | -0.009 ± 0.014 | 0.0125 ± 0.016 | -0.0045 ± 0.005 | 0.01 ± 0.037 | -0.0145 ± 0.025 | 0.0505 ± 0.023 | 0.0005 ± 0.044 | -0.003 ± 0.013 | 0.0455 ± 0.049 | 0.0165 ± 0.011 | 0.022 ± 0.068 | 0.006 ± 0.025 | 0.0175 ± 0.044 | 0.0305 ± 0.083 | -0.027 ± 0.023 | -0.011 | 0.046 ± 0.048 | -0.0015 ± 0.047 | -0.015 ± 0.011 | -0.0145 ± 0.0092 | -0.0045 ± 0.04 | 0.023 ± 0.025 | 0.016 ± 0.044 | -0.0095 ± 0.043 | 0.027 ± 0.034 | 0.0755 ± 0.0078 | 0.007 ± 0.0085 | 0.01 ± 0.03
BE3C:CXCL11/I-TAC | 0.004 ± 0.044 | 0.014 ± 0.024 | -0.008 ± 0.014 | -0.0065 ± 0.028 | -0.006 ± 0.023 | -0.0035 ± 0.029 | -0.008 ± 0.0042 | -0.002 ± 0.011 | -0.003 ± 0.0085 | -0.01 ± 0.0042 | 0.0035 ± 0.0021 | -0.0005 ± 0.00071 | -0.0295 ± 0.015 | -0.016 ± 0.014 | 0.0065 ± 0.015 | -0.011 ± 0.0042 | -0.003 ± 0.0042 | 0.003 ± 0.0057 | -0.0175 ± 0.012 | -0.015 ± 0.0028 | -0.005 ± 0.014 | 0.0005 ± 0.0035 | 0.0225 ± 0.061 | 0.0385 ± 0.0021 | 0.016 ± 0.0071 | -0.0915 ± 0.015 | 0.0135 ± 0.019 | -0.004 ± 0.011
SAg:Proliferation | 0.023 ± 0.037 | -0.0125 ± 0.13 | 0.036 ± 0.027 | -0.0235 ± 0.032 | -0.098 ± 0.0057 | -0.335 ± 0.098 | 0.026 ± 0.085 | 0.0465 ± 0.039 | 0.031 ± 0.051 | -0.019 ± 0.0028 | -0.017 ± 0.041 | 0.005 ± 0.024 | -0.0295 ± 0.029 | 0.014 ± 0.073 | 0.0045 ± 0.032 | 0.0275 ± 0.035 | 0.028 ± 0.034 | 0.0265 ± 0.056 | -0.0195 ± 0.04 | 0.0205 ± 0.046 | 0.0175 ± 0.08 | -0.0175 ± 0.015 | -0.032 ± 0.054 | -0.02 ± 0.054 | -0.0085 ± 0.011 | -0.0735 ± 0.0035 | 0.024 ± 0.034 | 0.0055 ± 0.0021
HDF3CGF:PAI-I | 0.027 ± 0.0028 | 0.012 ± 0.041 | -0.0155 ± 0.03 | -0.0005 ± 0.066 | -0.0695 ± 0.061 | -0.211 ± 0.08 | 0.006 ± 0.03 | 0.0095 ± 0.036 | -0.014 ± 0.0057 | -0.001 ± 0.037 | -0.0075 ± 0.0078 | 0.0145 ± 0.046 | 0.0145 ± 0.019 | -0.0095 ± 0.016 | -0.017 ± 0.0028 | -0.0215 ± 0.0035 | -0.008 ± 0.041 | -0.001 ± 0.0071 | -0.0055 ± 0.026 | -0.015 ± 0.013 | 0.007 ± 0.0014 | 0.003 ± 0.03 | 0.0265 ± 0.04 | 0.018 ± 0.034 | -0.002 ± 0.021 | 0.0015 ± 0.0078 | -0.0005 ± 0.037 | 0.001 ± 0.0028
BT:sIL-17F | -0.12 ± 0.17 | 0.0075 ± 0.015 | 0.0105 ± 0.042 | -0.018 ± 0.092 | -0.0225 ± 0.029 | -0.299 ± 0.037 | -0.03 ± 0.083 | -0.0575 ± 0.0021 | -0.0725 ± 0.086 | 0.0095 ± 0.012 | 0.0125 ± 0.011 | 0.0655 ± 0.15 | -0.042 ± 0.058 | 0.087 ± 0.22 | -0.0725 ± 0.13 | -0.023 ± 0.21 | -0.013 ± 0.045 | 0.02 ± 0.14 | -0.06 ± 0.027 | -0.0325 ± 0.044 | 0.0375 ± 0.19 | 0.0235 ± 0.015 | -0.042 ± 0.024 | -0.0295 ± 0.091 | 0.053 ± 0.0071 | 0.018 | 0.026 ± 0.011 | -0.0955 ± 0.14

A few values from the list.
Entry for LPS:CD69 under level (log10) (Perfluoropentanoic acid; 60000 nM): -0.0135 ± 0.083
Entry for SAg:Proliferation under level (log10) (Perfluoropentanoic acid; 2200 nM): 0.0265 ± 0.056
